From patent publication EP4727976A2
These are yes or no findings as the source states them, for the method shown. A result given as binding can be weak or reduced; the word gives no strength.

Columns and labels:
[1] = target: Cynomolgus MICA (Cynomolgus); test: BLI binding kinetics (legend of FIG. 8)
[2] = target: Cynomolgus MICA (Cynomolgus); test: BLI (Gator Bio), antibody on anti-Fc biosensors, 200 nM antigen, monovalent format

B1: ATX-P-1826 (fully humanized anti-MICA antibody) (antibody, human IgG1, kappa, V domains shown)
VH: QVQLVQSGAEVRKPGASVKVSCKASGYTFTGNYIHWVRQAPGQGLEWMGWINPNSGATNSAQKFQGRVTTTRDTSIDTAYMELSRLRSDDTAVYYCARDTFKPYYYYYLDVWGKGTTVTVSS
VL: DIQMTQSPSSVSASVGDRVTITCRTSQAINSWLAWYQQKPGKPPKLLISAASSLQSGVPSRFSGSGSGTDFTLTISNLQPEDFATYYCQQANIFPLTFGGGTKVEIKR
binding [1]: binds
binding [2]: binds
